# Test results: the supplement of paper PMC8616043
# Counter-ions that a name gives are not always drawn. Some of the results follow. This data set is noisy: repeats of one test often differ as much as different tests do.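 Human U-2 OS cells stably expressing a GFP sensor with a nuclear import signal and classical export signal were transfected to produce PR50, a 50-repeat proline–arginine dipeptide from ALS/FTD gene C9ORF72. Nuclear-minus-cytoplasm GFP was scaled from DMSO (low) to PR-only (high), scored against plate test wells; strongly negative scores marked PR-reversing hits.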
# Tested on: U-2 OS NCT-C biosensor cells expressing PR50
# Test: Z-score of normalised NCT-C biosensor translocation index in PR50-expressing cells; higher = more nuclear biosensor (more disrupted nuclear export)
# Conditions: 3 µM; 24 h
row,SMILES,Z-score
1,Cc1nnc(C(C)C)n1C1C[C@H]2CC[C@@H](C1)N2CC[C@H](NC(=O)C1CCC(F)(F)CC1)c1ccccc1 (stereo in doubt) [Maraviroc],inactive: 0.0715
2,C=C1C[C@]23C[C@@]1(O)CC[C@H]2[C@@]12C=C[C@H](O)[C@@](C)(C(=O)O1)[C@H]2[C@@H]3C(=O)O [(+)-Gibberellic acid],inactive: -0.586
3,O=C(NCc1cccnc1)c1ccc([N+](=O)[O-])o1,inactive: 0.516
4,COc1ccc(-c2cc(=O)c3c(O)cc(O[C@@H]4O[C@H](CO[C@@H]5O[C@@H](C)[C@H](O)[C@@H](O)[C@H]5O)[C@@H](O)[C@H](O)[C@H]4O)cc3o2)cc1O [Diosmin],inactive: -0.655
5,CCOC(=O)C1=C[C@]2(CC)CCCN3CCc4c(n1c1ccccc41)[C@@H]32 [Vinpocetin],inactive: -0.345
6,CCOC(=O)C1=C[C@]2(CC)CCCN3CCc4c(n1c1ccccc41)[C@@H]32 [Vinpocetine],inactive: -0.394
7,CCCCC(C)(O)C/C=C/[C@H]1[C@H](O)CC(=O)[C@@H]1CCCCCCC(=O)OC (mixture of isomers) [Misoprostol],inactive: 0.44
8,CNCCC(Oc1ccccc1OC)c1ccccc1 (stereo unspecified) [Nisoxetine hydrochloride],inactive: -0.452
9,COc1cc(CCC(C)=O)ccc1O [Vanillylacetone],inactive: -0.994
10,O=NN(CCCl)C(=O)NC1CCCCC1 [Lomustine],inactive: 0.332
11,CC(C)Cc1ccc(C(C)C(=O)O)cc1 (racemic) [(±)-Ibuprofen],inactive: -0.608
12,Cc1cccc(CN2CCN(C(c3ccccc3)c3ccc(Cl)cc3)CC2)c1 (stereo unspecified) [Meclizine Dihydrochloride],inactive: 0.0539
13,CCCCCCCCc1ccc(CCC(N)(CO)CO)cc1 [Fingolimod],inactive: 0.161
14,C[C@]12CC[C@@H]3c4ccc(O)cc4CC[C@H]3[C@@H]1CCC2=O [Estrone],inactive: -0.224
15,CCNCc1nc2c(N)nc3ccccc3c2n1CC(C)(C)O [Gardiquimod],inactive: 0.813
16,COc1ccc2cc1Oc1ccc(cc1)C[C@H]1c3cc(c(OC)cc3CCN1C)Oc1c(OC)c(OC)cc3c1[C@H](C2)N(C)CC3 [Tetrandrine],inactive: -0.0136
17,"COc1cc(/C=C/c2ccccc2)oc(=O)c1 [5,6-Dehydrokawain]",inactive: -0.554
18,CCC1=C(C)CN(C(=O)NCCc2ccc(S(=O)(=O)NC(=O)N[C@H]3CC[C@H](C)CC3)cc2)C1=O [Glimepiride],inactive: -0.132
19,CCS(=O)(=O)CCn1c([N+](=O)[O-])cnc1C [Tinidazole],inactive: -0.0829
20,O=C1CCc2cc(OCCCCc3nnnn3C3CCCCC3)ccc2N1 [Cilostazol],inactive: 1.88
21,O=P(O)(O)C(Cl)(Cl)P(=O)(O)O [Clodronic acid],inactive: 0.181
22,CC[C@H]1OC(=O)[C@H](C)C(=O)[C@H](C)[C@@H](O[C@@H]2O[C@H](C)C[C@H](N(C)C)[C@H]2O)[C@](C)(OC)C[C@@H](C)C(=O)[C@H](C)[C@H]2N(CCCCn3cnc(-c4cccnc4)c3)C(=O)O[C@]12C [Telithromycin],inactive: -0.0276

# Part of the list above in a different format:
row	SMILES	Z-score
1	Cc1nnc(C(C)C)n1C1C[C@H]2CC[C@@H](C1)N2CC[C@H](NC(=O)C1CCC(F)(F)CC1)c1ccccc1 (stereo in doubt) [Maraviroc]	inactive: 0.0715
2	C=C1C[C@]23C[C@@]1(O)CC[C@H]2[C@@]12C=C[C@H](O)[C@@](C)(C(=O)O1)[C@H]2[C@@H]3C(=O)O [(+)-Gibberellic acid]	inactive: -0.586
3	O=C(NCc1cccnc1)c1ccc([N+](=O)[O-])o1	inactive: 0.516

# Further records.

row,SMILES,Z-score
1,COC(=O)[C@@H]1[C@H]2C[C@H]3c4[nH]c5ccccc5c4CCN3C[C@@H]2CC[C@@H]1O [Yohimbine hydrochloride],inactive: 0.262
2,COC(=O)[C@@H]1[C@H]2C[C@H]3c4[nH]c5ccccc5c4CCN3C[C@@H]2CC[C@@H]1O [Yohimbine·HCl],inactive: -0.777
3,C=C(C)[C@@H]1CC=C(C(=O)O)CC1 [(S)-(-)-Perillic acid],inactive: -0.304
4,C=C(C)[C@@H]1CC=C(C(=O)O)CC1 [Perillic acid],inactive: -0.413
5,Oc1c2ccccc2c2c3c(cccc13)N=N2,inactive: -0.342
6,CC(C)C[C@H](NC(=O)[C@H]1O[C@@H]1C(=O)O)C(=O)NCCCCN=C(N)N,inactive: 0.422
7,CC1(C)NC(=O)N(c2ccc([N+](=O)[O-])c(C(F)(F)F)c2)C1=O [Nilutamide],inactive: 0.332
8,CC(C)NCC(O)COc1cccc2ccccc12 (stereo unspecified) [Propranolol·HCl],inactive: 0.47
9,CCOc1ccccc1OCCN[C@H](C)Cc1ccc(OC)c(S(N)(=O)=O)c1 [Tamsulosin·HCl],inactive: 0.337
10,Cn1c(-c2ccc3c(c2)OCO3)cc(=O)c2ccccc21 [Graveoline],inactive: 0.147
11,O=S(=O)(O)CCS [Mesna],inactive: 0.532
12,CCCCNC(=O)NS(=O)(=O)c1ccc(C)cc1 [Tolbutamide],inactive: -0.602
13,O=C(O)c1cc(-c2ccc(F)cc2F)ccc1O [Diflunisal],inactive: 0.241
14,CCN1CC(CCN2CCOCC2)C(c2ccccc2)(c2ccccc2)C1=O (stereo unspecified) [Doxapram·HCl H2O],inactive: 0.262
15,COc1ccc(-c2cc(=O)c3ccc(O)cc3o2)cc1 [Pratol],inactive: 0.805
16,CC(=O)N[C@H]1[C@H]([C@H](O)[C@H](O)CO)OC(C(=O)O)=C[C@@H]1NC(=N)N [Zanamivir],inactive: 1.23
17,CCC(=O)O[C@]1(C(=O)CCl)[C@@H](C)C[C@H]2[C@@H]3C[C@H](F)C4=CC(=O)C=C[C@]4(C)[C@@]3(F)[C@@H](O)C[C@@]21C [Halobetasol Propionate],inactive: 1.47
18,Cc1nc2n(c(=O)c1CCN1CCC(c3noc4cc(F)ccc34)CC1)CCCC2 [Risperidone],inactive: 0.868
19,CNCCC(Oc1ccc(C(F)(F)F)cc1)c1ccccc1 (stereo unspecified) [Fluoxetine hydrochloride],inactive: 0.104
20,CNCCC(Oc1ccc(C(F)(F)F)cc1)c1ccccc1 (stereo unspecified) [Fluoxetine·HCl],inactive: 0.789
21,O=c1oc2cc(O)ccc2c2oc3cc(O)ccc3c12 [Coumestrol],inactive: -0.917
22,N=C(N)NCCC[C@H](N)C(=O)O [L-Arginine],inactive: -0.237

row,SMILES,Z-score
1,C[C@@H](CN1CC(=O)NC(=O)C1)N1CC(=O)NC(=O)C1 [Dexrazoxane],inactive: -0.334
2,OCc1cc(C(O)CNCCCCCCOCCCCc2ccccc2)ccc1O (stereo unspecified) [Salmeterol],inactive: 0.678
3,Cc1cc(C2CCCCC2)n(O)c(=O)c1 [Ciclopirox],inactive: 0.536
4,COc1cc(C(=O)NS(=O)(=O)c2ccccc2C)ccc1Cc1cn(C)c2ccc(NC(=O)OC3CCCC3)cc12 [Zafirlukast],inactive: -0.0298
5,Oc1cc(O)c2cc(O)c(-c3cc(O)c(O)c(O)c3)[o+]c2c1 [Delphinidin chloride],active: -2.26
6,NS(=O)(=O)c1cc(C(=O)O)c(NCc2ccco2)cc1Cl [Furosemide],inactive: 0.203
7,"Cn1c(=O)c2[nH]c(C3CCCC3)nc2n(C)c1=O [8-Cyclopentyl-1,3-dimethylxanthine]",inactive: -0.553
8,CC(C)COCC(CN(Cc1ccccc1)c1ccccc1)N1CCCC1 (stereo unspecified) [Bepridil hydrochloride],inactive: 3.9
9,NC(=O)c1ncn([C@@H]2O[C@H](CO)[C@@H](O)[C@H]2O)n1 [Ribavirin],inactive: -0.352
10,CCOC(=O)[C@H](CCc1ccccc1)N[C@@H](C)C(=O)N1[C@H](C(=O)O)C[C@@H]2CCC[C@@H]21 [Ramipril],inactive: 0.0473
11,NS(=O)(=O)c1cc2c(cc1Cl)N=CNS2(=O)=O [Chlorothiazide],inactive: -0.217
12,O=C(COc1ccc(Cl)cc1)NC1CCC(NC(=O)COc2ccc(Cl)cc2)CC1 (stereo unspecified),inactive: 2.75
13,O=c1c(O)c(-c2ccc(O)c(O)c2)oc2cc(O)ccc12 [Fisetin],inactive: 0.486
14,CNS(=O)(=O)Cc1ccc2[nH]cc(CCN(C)C)c2c1 [Sumatriptan Succinate],inactive: 0.256
15,CN[C@H](CC(C)C)C(=O)N[C@H]1C(=O)N[C@@H](CC(N)=O)C(=O)N[C@H]2C(=O)N[C@H]3C(=O)N[C@H](C(=O)N[C@H](C(=O)O)c4cc(O)cc(O)c4-c4cc3ccc4O)[C@H](O)c3ccc(c(Cl)c3)Oc3cc2cc(c3O[C@@H]2O[C@H](CO)[C@@H](O)[C@H](O)[C@H]2O[C@H]2C[C@](C)(N)[C@H](O)[C@H](C)O2)Oc2ccc(cc2Cl)[C@H]1O [Vancomycin hydrochloride],inactive: -0.709
16,NC(=O)Cc1cccc(C(=O)c2ccccc2)c1N [Nepafenac],inactive: -0.359
17,C[C@H]1COC2=C1C(=O)C(=O)c1c2ccc2c1CCCC2(C)C [Cryptotanshinone],inactive: -0.556
18,CC(=O)SCC[N+](C)(C)C [Acetylthiocholine chloride],inactive: 0.0554
19,CCCCC1=NC2(CCCC2)C(=O)N1Cc1ccc(-c2ccccc2-c2nnn[nH]2)cc1 [Irbesartan],inactive: 1.22
20,O=[N+]([O-])c1ccc2c(c1)S(=O)(=O)C=C2 [Stattic],inactive: 1.55
21,Nc1ccc(-c2ccc3ccccc3n2)cc1 [BF-170 hydrochloride],inactive: -0.57
22,CC[C@H]1OC(=O)[C@H](C)[C@@H](O[C@H]2C[C@@](C)(OC)[C@@H](O)[C@H](C)O2)[C@H](C)[C@@H](O[C@@H]2O[C@H](C)C[C@H](N(C)C)[C@H]2O)[C@](C)(OC)C[C@@H](C)C(=O)[C@H](C)[C@@H](O)[C@]1(C)O [Clarithromycin],inactive: 0.629
